# Values from PubChem BioAssay AID1508597 (Cure First, 2020)
# Aim: 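Knock-downs altering ovarian cancer cell survival with or without PARP inhibitor rucaparib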 (primary screen)
# Cells: human ovarian carcinoma lines grown from tumours: OCI-P5x (papillary serous) and OCI-C5x (clear cell)
# Reagents: siRNA pool against human genes, 1.25 pmol siRNA per well
# Duration: 72 h or 96 h, depending on the cell culture
# Conditions: rucaparib 20 µM (about IC30) or vehicle, present until read-out
# Rucaparib or vehicle: Vehicle
# Cell line: OCI-P5x (serous)
# Detection: 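ATP luminescence measured at 72 or 96 h according to the culture, then normalised and expressed as percent viability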
# Direction: viability, normalised: higher = more viable cells remaining
# Call rule: 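a well counts as a hit if its normalised viability is under 80 percent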
# Meaning of the calls: active = viability under 80%; inactive = viability 80% or more
# Shown is an unselected part of the about 2,100 reagents, in one setting of the screen. 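Calls flag viability under 80% in either arm, not effects specific to rucaparib; the reference for percent is not stated.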 A reagent listed more than once was tested more than once; the source does not tell the runs apart. The record does not give: the 100% reference.
gene symbol,technical replicate,"viability, normalised (%)",call
HDAC11,1,74.4,active
HDAC11,2,72.8,active
HDAC11,3,84.3,inactive
FGFR2,1,46.3,active
FGFR2,1,83.1,inactive
FGFR2,2,48.4,active
FGFR2,2,78.6,active
FGFR2,3,119,inactive
FGFR2,3,54.6,active
MED26,1,48.4,active
MED26,2,38.3,active
MED26,3,58.9,active
NBN,1,47.1,active
NBN,1,66.2,active
NBN,2,67.5,active
NBN,2,39.4,active
NBN,3,45.1,active
NBN,3,79.5,active
CHMP2B,1,78,active
CHMP2B,2,79.5,active
CHMP2B,3,70.6,active
RASGRF1,1,59.3,active
RASGRF1,2,48,active
RASGRF1,3,54.2,active
ACVR2B,1,66.2,active
ACVR2B,2,51.7,active
ACVR2B,3,74.9,active
PHF20L1,1,60.7,active
PHF20L1,2,68.4,active
PHF20L1,3,83.8,inactive
SETDB2,1,40,active
SETDB2,2,50.4,active
SETDB2,3,60.5,active
MASTL,1,59.4,active
MASTL,2,63.7,active
MASTL,3,63,active
MCM2,1,59.5,active
MCM2,2,34.3,active
MCM2,3,45.5,active

Quoted from the listing for reference:
gene symbol,technical replicate,"viability, normalised (%)",call
PHF20L1,1,60.7,active
PHF20L1,2,68.4,active
